The record followed here is patent publication US11135246B2, “Peptides and combination of peptides for use in immunotherapy against leukemias and other cancers” (Immatics Biotechnologies GmbH, priority 2017, dated 2021).

In this data set the test system is HLA molecules of primary tumor samples. The data set can be described thus: Identification of tumor associated peptides presented on the cell surface (HLA immune precipitation, LC-MS). As to conditions: for Peptide Presentation on cancer entities: entities on which the peptide was presented, CLL = chronic lymphocytic leukemia, AML = acute myeloid leukemia, CML = Chronic myeloid leukemia; for Peptide Presentation on tumor types: tumor entities on which the peptide was found presented (Table 8b). Also noted: species or system human.

As for “1 (LTEGHSGNYY; listed as Homo sapiens) [compound 1]”, the “Peptide Presentation on cancer entities” value is recorded as “CLL” and the “Peptide Presentation on tumor types” value is “NHL”.
“2 (TMIRIFHRY; listed as Homo sapiens) [compound 2]”: the “Peptide Presentation on cancer entities” value is “AML”.
Regarding “3 (YINPAKLTPY; listed as Homo sapiens) [compound 3]”, the “Peptide Presentation on cancer entities” value is “CLL” and the “Peptide Presentation on tumor types” value was “GBC, MEL, NHL, NSCLCother, UBC”.
Consider “4 (ALDQNKMHY; listed as Homo sapiens) [compound 4]”, for which the “Peptide Presentation on cancer entities” value is reported as “AML”.
For “5 (GTDVLSTRY; listed as Homo sapiens) [compound 5]”, the “Peptide Presentation on cancer entities” value is on record as “AML, CML” and the “Peptide Presentation on tumor types” value is reported as “BRCA, CRC, GBC, GC, GEJC, MEL, NHL, NSCLCadeno, NSCLCother, NSCLCsquam, OSCAR, PACA, PRCA, RCC, SCLC, UBC, UEC”.
As to “6 (VTEGVAQTSFY; listed as Homo sapiens) [compound 6]”, the “Peptide Presentation on cancer entities” value is reported as “CLL” and the “Peptide Presentation on tumor types” value is “BRCA, CCC, GBC, GBM, GC, GEJC, HCC, HNSCC, MEL, NHL, NSCLCadeno, NSCLCother, NSCLCsquam, OC, OSCAR, PACA, PRCA, RCC, SCLC, UEC”.
“7 (FMDSESFYY; listed as Homo sapiens) [compound 7]”: the “Peptide Presentation on cancer entities” value is on record as “CLL” and the “Peptide Presentation on tumor types” value is recorded as “BRCA, GBC, GC, HNSCC, MEL, NHL, NSCLCadeno, NSCLCsquam”.
For “8 (STDSAGSSY; listed as Homo sapiens) [compound 8]”, in that order: “CLL” and “NHL”.
Turning to “9 (YSHPQYSSY; listed as Homo sapiens) [compound 9]”, the “Peptide Presentation on cancer entities” value was “CLL”.
“10 (YSDIGHLL; listed as Homo sapiens) [compound 10]”: the “Peptide Presentation on cancer entities” value was “CLL” and the “Peptide Presentation on tumor types” value is “BRCA, CCC, GC, NHL, NSCLCadeno, NSCLCother, NSCLCsquam, OC, PACA, RCC, UEC”.
On to “11 (AAADHHSLY; listed as Homo sapiens) [compound 11]”, for which the “Peptide Presentation on cancer entities” value is recorded as “AML” and the “Peptide Presentation on tumor types” value is “GC, SCLC”.
Consider “12 (ATDIVDSQY; listed as Homo sapiens) [compound 12]”, for which the “Peptide Presentation on cancer entities” value was “CLL”.
Take “13 (ITDIHIKY; listed as Homo sapiens) [compound 13]”: the “Peptide Presentation on cancer entities” value is listed as “CLL” and the “Peptide Presentation on tumor types” value was “BRCA, CRC, GBC, GBM, GC, GEJC, HNSCC, MEL, NHL, NSCLCadeno, NSCLCother, NSCLCsquam, OSCAR, PACA, PRCA, RCC, SCLC, UBC”.
Consider “14 (TFDLTVVSY; listed as Homo sapiens) [compound 14]”, for which the “Peptide Presentation on cancer entities” value is on record as “CLL” and the “Peptide Presentation on tumor types” value is reported as “BRCA, CCC, CRC, GBC, GBM, GC, HCC, HNSCC, MEL, NHL, NSCLCadeno, NSCLCother, NSCLCsquam, OC, OSCAR, PACA, PRCA, RCC, SCLC, UBC, UEC”.
Take “15 (SVADIRNAY; listed as Homo sapiens) [compound 15]”: the “Peptide Presentation on cancer entities” value is “CLL” and the “Peptide Presentation on tumor types” value was “BRCA, CCC, CRC, GBC, GBM, GC, HCC, HNSCC, MEL, NHL, NSCLCadeno, NSCLCother, NSCLCsquam, OC, OSCAR, PACA, PRCA, RCC, SCLC, UBC, UEC”.
“16 (WIGDKSFEY; listed as Homo sapiens) [compound 16]”: the “Peptide Presentation on cancer entities” value is reported as “AML” and the “Peptide Presentation on tumor types” value is reported as “BRCA, CRC, GBC, GBM, GC, HCC, MEL, NSCLCadeno, NSCLCsquam, OSCAR, PACA, PRCA, RCC”.
Regarding “17 (KAYNRVIFV; listed as Homo sapiens) [compound 17]”, the “Peptide Presentation on cancer entities” value is “CLL” and the “Peptide Presentation on tumor types” value is “BRCA, CCC, CRC, GBC, GBM, GEJC, HCC, HNSCC, NHL, NSCLCadeno, NSCLCother, NSCLCsquam, OC, OSCAR, PACA, SCLC, UBC, UEC”.
For the substance “18: peptide found in AGPAT5 (gene looked up) (YLLPSVVLL; listed as Homo sapiens) [compound 18]”, the “Peptide Presentation on cancer entities” value is “CLL” and the “Peptide Presentation on tumor types” value is listed as “BRCA, CCC, CRC, GBC, GBM, GC, GEJC, HCC, HNSCC, MEL, NHL, NSCLCadeno, NSCLCother, NSCLCsquam, OC, OSCAR, PACA, PRCA, RCC, SCLC, UBC, UEC”.
Take “19 (SLFEGIYTI; listed as Homo sapiens) [compound 19]”: the “Peptide Presentation on cancer entities” value was “AML”.
With “20 (FSLEDLVRI; listed as Homo sapiens) [compound 20]”, the “Peptide Presentation on cancer entities” value is given as “CLL” and the “Peptide Presentation on tumor types” value is recorded as “NHL”.
Take “21 (FLFDKLLLI; listed as Homo sapiens) [compound 21]”: the “Peptide Presentation on cancer entities” value is on record as “CLL” and the “Peptide Presentation on tumor types” value was “BRCA, CCC, CRC, GBC, GBM, GC, GEJC, HCC, HNSCC, MEL, NHL, NSCLCadeno, NSCLCother, NSCLCsquam, OC, OSCAR, PACA, PRCA, RCC, SCLC, UBC, UEC”.
Take “22 (ILHAQTLKI; listed as Homo sapiens) [compound 22]”: the “Peptide Presentation on cancer entities” value is reported as “CLL” and the “Peptide Presentation on tumor types” value is “HCC, NHL, NSCLCsquam, PRCA”.
“23 (FAFSGVLRA; listed as Homo sapiens) [compound 23]”: the “Peptide Presentation on cancer entities” value is reported as “AML” and the “Peptide Presentation on tumor types” value is “BRCA, CRC, GBC, GEJC, HCC, HNSCC, NHL, NSCLCadeno, NSCLCother, NSCLCsquam, OC, OSCAR, PRCA, SCLC, UBC, UEC”.
Take “24 (KLGPVAVSI; listed as Homo sapiens) [compound 24]”: the “Peptide Presentation on cancer entities” value is “CLL” and the “Peptide Presentation on tumor types” value was “HCC, HNSCC, NHL, NSCLCsquam, OSCAR, PRCA”.
Regarding “25 (YLNEKSLQL; listed as Homo sapiens) [compound 25]”, the “Peptide Presentation on cancer entities” value is “AML, CML” and the “Peptide Presentation on tumor types” value is listed as “BRCA, CCC, CRC, GEJC, HCC, MEL, NHL, NSCLCadeno, NSCLCother, NSCLCsquam, OC, PRCA, RCC, SCLC, UBC, UEC”.
For “26 (SLYVQQLKI; listed as Homo sapiens) [compound 26]”, the “Peptide Presentation on cancer entities” value is reported as “CLL” and the “Peptide Presentation on tumor types” value is on record as “HNSCC, NHL, OC, PRCA”.
Turning to “27 (RLIAKEMNI; listed as Homo sapiens) [compound 27]”, the “Peptide Presentation on cancer entities” value was “CLL” and the “Peptide Presentation on tumor types” value is reported as “HCC, NHL”.
With “28 (VILESIFLK; listed as Homo sapiens) [compound 28]”, the “Peptide Presentation on cancer entities” value is “CLL” and the “Peptide Presentation on tumor types” value is listed as “GBC, NHL, NSCLCadeno, NSCLCother, NSCLCsquam, OC, OSCAR, PRCA, UEC”.
For the substance “29 (RIYDEILQSK; listed as Homo sapiens) [compound 29]”, the “Peptide Presentation on cancer entities” value is given as “AML” and the “Peptide Presentation on tumor types” value is recorded as “RCC”.
In the case of “30 (RTYGFVLTF; listed as Homo sapiens) [compound 30]”, the “Peptide Presentation on cancer entities” value is given as “CLL”.
In the case of “31 (ATFNKLVSY; listed as Homo sapiens) [compound 31]”, the “Peptide Presentation on cancer entities” value is given as “AML” and the “Peptide Presentation on tumor types” value is reported as “CRC, SCLC, UBC”.
With “32 (KTSNIVKIK; listed as Homo sapiens) [compound 32]”, the “Peptide Presentation on cancer entities” value is listed as “CLL”.
Turning to “33 (SVFEGDSIVLK; listed as Homo sapiens) [compound 33]”, the “Peptide Presentation on cancer entities” value is reported as “CLL” and the “Peptide Presentation on tumor types” value was “NHL, NSCLCadeno, NSCLCother, OC”.
For the substance “34 (SVYSETSNMDK; listed as Homo sapiens) [compound 34]”, the “Peptide Presentation on cancer entities” value is recorded as “CLL” and the “Peptide Presentation on tumor types” value is given as “BRCA, MEL, NHL, NSCLCsquam, OC, OSCAR, RCC, UEC”.
For the substance “35 (ATKSPAKPK; listed as Homo sapiens) [compound 35]”, the “Peptide Presentation on cancer entities” value was “CLL”.
Still for that read-out and setting: the entry for “36 (KAKAAAKPK; listed as Homo sapiens) [compound 36]” is “CLL”; for “37 (KAKKPAGAAK; listed as Homo sapiens) [compound 37]” it is “CLL”; for “38 (KARKSAGAAK; listed as Homo sapiens) [compound 38]” it is “CLL”.
On to “39 (IVIQLRAQK; listed as Homo sapiens) [compound 39]”, for which the “Peptide Presentation on cancer entities” value is “CLL”.
In the case of “40 (RSKEYIRKK; listed as Homo sapiens) [compound 40]”, the “Peptide Presentation on cancer entities” value was “CLL”.
With “41 (SVAHLLSKY; listed as Homo sapiens) [compound 41]”, the “Peptide Presentation on cancer entities” value is “CLL” and the “Peptide Presentation on tumor types” value is on record as “UEC”.
Turning to “42 (SVSSSTHFTR; listed as Homo sapiens) [compound 42]”, the “Peptide Presentation on cancer entities” value is “CLL” and the “Peptide Presentation on tumor types” value is listed as “GC, HNSCC, NHL, NSCLCadeno, NSCLCsquam, UEC”.
“43 (KLMETSMGF; listed as Homo sapiens) [compound 43]”: the “Peptide Presentation on cancer entities” value is given as “CLL” and the “Peptide Presentation on tumor types” value is on record as “BRCA, CRC, GBC, GBM, GC, HCC, HNSCC, MEL, NHL, NSCLCother, NSCLCsquam, OC, OSCAR, PACA, PRCA, RCC, SCLC, UBC, UEC”.
In the case of “44 (KVYDPVSEY; listed as Homo sapiens) [compound 44]”, the “Peptide Presentation on cancer entities” value is recorded as “CLL” and the “Peptide Presentation on tumor types” value is recorded as “BRCA, CCC, GBC, GBM, HCC, MEL, NHL, NSCLCadeno, NSCLCother, NSCLCsquam, OC, OSCAR, PACA, RCC, SCLC, UBC, UEC”.
“45 (VVFPFPVNK; listed as Homo sapiens) [compound 45]”: the “Peptide Presentation on cancer entities” value is “AML, CML” and the “Peptide Presentation on tumor types” value was “GBM, NHL, NSCLCother, OC, SCLC, UEC”.
As for “46 (RVFPSPMRI; listed as Homo sapiens) [compound 46]”, the “Peptide Presentation on cancer entities” value is recorded as “CLL” and the “Peptide Presentation on tumor types” value is recorded as “MEL, NHL, NSCLCsquam, OSCAR, SCLC”.
For the substance “47 (SVLDLSVHK; listed as Homo sapiens) [compound 47]”, the “Peptide Presentation on cancer entities” value was “CLL” and the “Peptide Presentation on tumor types” value was “CCC, HCC, NHL, OSCAR, PRCA, SCLC, UEC”.
Regarding “48 (RIKPPGPTAVPK; listed as Homo sapiens) [compound 48]”, the “Peptide Presentation on cancer entities” value is recorded as “AML” and the “Peptide Presentation on tumor types” value is on record as “BRCA, MEL”.
